Test results from publication PMC10238197, “Deafness‐Associated ADGRV1 Mutation Impairs USH2A Stability through Improper Phosphorylation of WHRN and WDSUB1 Recruitment” (Advanced Science, 2023).
Residue numbers refer to the chain shown, from its start. Results are given in words; binding and its absence hold for the method and conditions named. In cells and extracts the contact can be indirect. Some binding calls cover weakened binding; strength is not graded here. Sequences can lack the tags named with a protein.

Protein sequences, listed by entry. Tags and fused reporters are not part of them. Residues count along the entry.
UniProt Q8VHN7, residues 4333-6298: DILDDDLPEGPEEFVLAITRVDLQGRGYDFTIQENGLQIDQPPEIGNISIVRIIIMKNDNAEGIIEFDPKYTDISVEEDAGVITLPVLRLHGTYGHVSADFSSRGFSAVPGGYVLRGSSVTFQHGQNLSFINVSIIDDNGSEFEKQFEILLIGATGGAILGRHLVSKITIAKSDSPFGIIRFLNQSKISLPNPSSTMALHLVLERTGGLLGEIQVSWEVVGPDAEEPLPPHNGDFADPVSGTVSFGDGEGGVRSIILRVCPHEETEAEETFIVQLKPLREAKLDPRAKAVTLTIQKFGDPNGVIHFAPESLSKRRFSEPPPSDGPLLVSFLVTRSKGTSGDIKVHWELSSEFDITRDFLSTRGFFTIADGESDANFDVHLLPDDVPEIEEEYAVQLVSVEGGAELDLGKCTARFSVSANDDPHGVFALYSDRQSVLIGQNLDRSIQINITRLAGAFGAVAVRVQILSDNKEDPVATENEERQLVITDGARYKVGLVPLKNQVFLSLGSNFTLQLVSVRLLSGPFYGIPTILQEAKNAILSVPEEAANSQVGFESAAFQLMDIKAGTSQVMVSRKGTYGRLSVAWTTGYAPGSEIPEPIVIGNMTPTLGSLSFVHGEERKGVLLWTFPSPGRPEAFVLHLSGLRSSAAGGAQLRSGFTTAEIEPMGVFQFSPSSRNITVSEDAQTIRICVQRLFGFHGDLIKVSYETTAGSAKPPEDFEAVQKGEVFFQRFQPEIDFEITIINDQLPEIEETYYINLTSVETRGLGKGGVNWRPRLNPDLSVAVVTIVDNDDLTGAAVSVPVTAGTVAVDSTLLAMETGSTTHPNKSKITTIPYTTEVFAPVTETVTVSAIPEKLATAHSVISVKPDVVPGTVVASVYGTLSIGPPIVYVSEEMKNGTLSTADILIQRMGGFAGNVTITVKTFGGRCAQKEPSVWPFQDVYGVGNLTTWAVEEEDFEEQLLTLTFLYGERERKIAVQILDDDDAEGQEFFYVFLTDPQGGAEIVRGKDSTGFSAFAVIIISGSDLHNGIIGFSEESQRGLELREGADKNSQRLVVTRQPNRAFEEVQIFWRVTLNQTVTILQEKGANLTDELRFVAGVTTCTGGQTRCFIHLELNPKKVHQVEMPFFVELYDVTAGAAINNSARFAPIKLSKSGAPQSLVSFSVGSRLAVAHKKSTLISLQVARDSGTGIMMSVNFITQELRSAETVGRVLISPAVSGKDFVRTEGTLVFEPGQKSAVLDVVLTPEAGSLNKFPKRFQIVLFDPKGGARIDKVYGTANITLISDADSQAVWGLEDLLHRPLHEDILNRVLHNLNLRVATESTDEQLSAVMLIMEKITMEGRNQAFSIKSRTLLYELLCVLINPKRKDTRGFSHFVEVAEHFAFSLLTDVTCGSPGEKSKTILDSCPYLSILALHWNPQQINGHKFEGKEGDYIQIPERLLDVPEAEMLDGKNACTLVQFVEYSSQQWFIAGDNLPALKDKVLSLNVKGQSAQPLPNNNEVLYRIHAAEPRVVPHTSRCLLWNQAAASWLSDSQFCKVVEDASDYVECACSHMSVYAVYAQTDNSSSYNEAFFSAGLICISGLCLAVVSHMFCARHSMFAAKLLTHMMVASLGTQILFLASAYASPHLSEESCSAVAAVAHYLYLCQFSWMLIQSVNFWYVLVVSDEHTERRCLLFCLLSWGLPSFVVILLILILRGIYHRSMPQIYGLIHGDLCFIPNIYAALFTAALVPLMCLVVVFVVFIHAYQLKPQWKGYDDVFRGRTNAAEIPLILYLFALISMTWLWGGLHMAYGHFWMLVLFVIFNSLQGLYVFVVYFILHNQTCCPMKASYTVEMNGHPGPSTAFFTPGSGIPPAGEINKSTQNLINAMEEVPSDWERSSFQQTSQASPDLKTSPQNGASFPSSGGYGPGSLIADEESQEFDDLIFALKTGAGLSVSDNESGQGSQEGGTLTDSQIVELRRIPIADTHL

Key:
Experiment in all cases: FRET or BRET; intermolecular FlAsH-BRET saturation in HEK293 cells: fixed amount of WHRN-Nluc, increasing ADGRV1-FlAsH or USH2A-FlAsH; 2.5 µM FlAsH-EDT2, 5 µM coelenterazine-h; net BRET Em530/Em485
[1] = molecular target: T1, WHRN-Nluc (L-Z2) S290A (mouse) (UniProt Q80VW5)
T1 sequence: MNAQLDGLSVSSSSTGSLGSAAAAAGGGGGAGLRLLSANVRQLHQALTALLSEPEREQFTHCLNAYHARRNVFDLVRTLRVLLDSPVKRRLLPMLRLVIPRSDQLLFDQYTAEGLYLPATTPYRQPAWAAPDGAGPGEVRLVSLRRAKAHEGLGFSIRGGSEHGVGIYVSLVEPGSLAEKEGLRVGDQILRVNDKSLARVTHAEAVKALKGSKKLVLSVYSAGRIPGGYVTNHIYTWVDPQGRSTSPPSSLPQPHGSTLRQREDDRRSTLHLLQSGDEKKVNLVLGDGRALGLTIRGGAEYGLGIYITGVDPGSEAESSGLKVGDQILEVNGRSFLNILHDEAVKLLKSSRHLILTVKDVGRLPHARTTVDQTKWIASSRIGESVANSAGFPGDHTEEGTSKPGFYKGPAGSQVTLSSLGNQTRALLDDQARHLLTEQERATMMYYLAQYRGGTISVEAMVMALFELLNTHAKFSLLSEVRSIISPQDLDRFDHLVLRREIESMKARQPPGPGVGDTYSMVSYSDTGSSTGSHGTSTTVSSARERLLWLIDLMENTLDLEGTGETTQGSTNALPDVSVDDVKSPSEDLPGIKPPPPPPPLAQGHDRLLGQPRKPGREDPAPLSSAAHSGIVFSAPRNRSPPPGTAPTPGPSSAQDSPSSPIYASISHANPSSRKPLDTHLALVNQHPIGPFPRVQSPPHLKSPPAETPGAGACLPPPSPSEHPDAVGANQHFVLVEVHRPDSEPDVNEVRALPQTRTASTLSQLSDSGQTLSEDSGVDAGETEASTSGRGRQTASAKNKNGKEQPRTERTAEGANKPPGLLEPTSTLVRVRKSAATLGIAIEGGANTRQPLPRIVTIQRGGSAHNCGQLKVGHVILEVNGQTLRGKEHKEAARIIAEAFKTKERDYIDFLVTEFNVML

WHRN-Nluc L-Z2 (mouse) = molecular target: T2, WHRN-Nluc L-Z2 (mouse) (UniProt Q80VW5)
T2 sequence: T1 sequence with A290S

WHRN-Nluc L-Z3 (mouse) = molecular target: T3, WHRN-Nluc L-Z3 (mouse) (UniProt Q80VW5)
T3 sequence: T1 sequence with A290S

Measured: binding

ADGRV1-ICL3-FlAsH (from UniProt Q8VHN7 4333-6298) (receptor)
binds: [1] | WHRN-Nluc L-Z2 (mouse) | WHRN-Nluc L-Z3 (mouse)
